Test results from publication doi:10.1101/2024.02.29.582781 (bioRxiv, 2024).

T1: CoxG homologue Saci_2031, C-terminally HA-tagged (Sulfolobus acidocaldarius DSM 639) (UniProt Q4J7A4)
T1 sequence: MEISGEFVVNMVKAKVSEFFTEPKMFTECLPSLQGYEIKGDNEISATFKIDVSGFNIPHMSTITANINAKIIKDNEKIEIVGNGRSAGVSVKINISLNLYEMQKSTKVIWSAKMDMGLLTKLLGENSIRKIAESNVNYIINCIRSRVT

T2: CoxG homologue Saci_1119, C-terminally HA-tagged (Sulfolobus acidocaldarius DSM 639) (UniProt Q4J9R0)
T2 sequence: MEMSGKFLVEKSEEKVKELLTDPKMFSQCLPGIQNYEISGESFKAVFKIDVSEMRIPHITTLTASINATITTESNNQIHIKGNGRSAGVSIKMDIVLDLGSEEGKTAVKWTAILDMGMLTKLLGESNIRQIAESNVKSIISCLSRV


Tests used:
[1] = biological target: T1, CoxG homologue Saci_2031, C-terminally HA-tagged (Sulfolobus acidocaldarius DSM 639); experiment: affinity purification with mass spectrometry
[2] = biological target: T2, CoxG homologue Saci_1119, C-terminally HA-tagged (Sulfolobus acidocaldarius DSM 639); experiment: affinity purification with mass spectrometry

binding [1]	binding [2]	Binder
binds		glycerol-3-phosphate dehydrogenase Saci_2032, N-terminally His-tagged (enzyme, Sulfolobus acidocaldarius DSM 639, UniProt Q4J7A2 1-431, looked up) MEIKTSVLVIGGGANGLFTALDLALRGIDVTLVERRDIGSGTSGRFHGLLHSGARYAVTDPESAKECIQENNIISKIAPHAIRDTGGLFLGITKEDLEFLDKFLSSLKKLGIEHKIVDNNQVLQEEPYVNKDLKIAIWVPDKVVYGYDLLSSIAVTGSLNKARIMTYNEVTEFIRDGNSIKGVKVFDKITNQMNLIKSDIIINTSGPWAFKIITMAGLEEIPILPTAGIMAVFGKKVNNAVLNRLRPPSDGDIIVPYQDTSILGTTATIIEDPDNFTISDEDVKMLIKEGSQLVPELSKTRVIRTYASVRPLMRTSEDGRKASRDFTILDHEREDGVSGLISIIGGKFTTSRLVGEKVGDLVSEKLGVRAKSKTKETKLISPSEIDFEKYLEKIGISKIFLKSVMERRGSLDEERYKTVLYLLLSLIARGR
	binds	glycerol-3-phosphate dehydrogenase Saci_1118, N-terminally His-tagged (enzyme, Sulfolobus acidocaldarius DSM 639, UniProt Q4J9Q8 1-428, looked up) MKQNSSVIVIGGGATGLFTALDLSLRGINVTLVERGDIASGTSGKFHGLLHSGARYAVNDPESAKECKQENEVLSKIAPEFVRDTGGVFVGITEDDVNYSQRFLSALNSLGITNKVMDVEELIRREPFINKKSKIAIWVPDKVVYGYDLLATVALTASLNGAKILTYNEVKRVLREGNSVRRVEVKDNISGETKILNGDIIVNTAGPWAFRVIEMAGLGEIPLLPTAGIMVVMKEKLNSMVINRLRPPSDGDIIVPYGDSSIIGTTATIIPDPDNFEISDEDINMLIEEGAYMIPRLKEVKPERAYASVRPLIKNAEDGRGATRDFMIIDHEKVDSLDGLISVIGGKFTTSRLAGEKVSDMVSEKLGIREKSKTATIKLMSELDEKLLEKKRVPKVLVKMIRERKGSLDEDRYSTAMYILLSLLARGE

Results are given in words; binding and its absence hold for the method and conditions named. Binding seen in cells or lysates may run through a third protein. These calls come from enrichment with a bait or labelling near it, and not all partners need be listed. Sequences can lack the tags named with a protein.
